This note sets out measurements from PMC11076491, “Allosteric regulation by c-di-AMP modulates a complete N-acetylglucosamine signaling cascade in Saccharopolyspora erythraea” (Nature Communications, 2024).

Sequences of proteins named here, by UniProt entry; tags and fusion partners are left off. A change or cut given only in a name is not applied to a line headed by its entry.
UniProt Q9K492: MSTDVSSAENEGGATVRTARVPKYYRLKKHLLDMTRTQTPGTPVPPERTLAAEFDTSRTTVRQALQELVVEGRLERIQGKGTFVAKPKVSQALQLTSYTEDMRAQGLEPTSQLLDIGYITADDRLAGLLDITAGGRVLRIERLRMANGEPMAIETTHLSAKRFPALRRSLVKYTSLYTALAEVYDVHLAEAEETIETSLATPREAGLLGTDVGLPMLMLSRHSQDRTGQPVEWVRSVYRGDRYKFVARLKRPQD

For part of these data: Where a protein sequence is shown, tags need not be part of it. The exact form of at least one protein or probe is not confirmed. For part of these data: At least one verdict rests on a figure or table, not on a statement of the authors.

Series [1] deals with T1, DasR (Saccharopolyspora erythraea) (UniProt A4F723).
T1 sequence (looked up): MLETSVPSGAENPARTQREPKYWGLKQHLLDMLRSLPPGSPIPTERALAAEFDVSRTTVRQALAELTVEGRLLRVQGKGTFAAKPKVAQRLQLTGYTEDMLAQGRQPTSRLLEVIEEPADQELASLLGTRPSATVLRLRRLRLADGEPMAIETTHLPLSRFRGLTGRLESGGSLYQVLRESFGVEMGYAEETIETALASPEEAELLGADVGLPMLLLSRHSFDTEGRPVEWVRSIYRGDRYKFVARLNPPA
In words: BLI. Conditions: BLI: 10 mM HEPES pH 8.0, 2 mM MgCl2, 0.1 mM EDTA, 200 mM KCl (running buffer + 10 ug/mL BSA, 0.02% Tween-20), recombinant protein, residues 1-251, protein details: His (pET-28a), label: 5'-biotin, probe letters rebuilt from the primers and the genome.

For series [2], the target named is T1, DasR (Saccharopolyspora erythraea). Kind of series: EMSA. Conditions: EMSA: 10 mM Tris-HCl pH 8.0, 25 mM MgCl2, 50 mM NaCl, 1 mM DTT, 1 mM EDTA, 0.01% NP-40, 50 ug/mL poly(dIdC), 10% glycerol, 18 C, 30 min, recombinant protein, residues 1-251, protein details: His (pET-28a), label: 5'-biotin, probe letters rebuilt from the primers and the genome.
Series [3] concerns the target DasRSco (ScoDasR) (Streptomyces coelicolor) (UniProt Q9K492). Kind of series: EMSA. Conditions: EMSA: 10 mM Tris-HCl pH 8.0, 25 mM MgCl2, 50 mM NaCl, 1 mM DTT, 1 mM EDTA, 0.01% NP-40, 50 ug/mL poly(dIdC), 10% glycerol, 18 C, 30 min, recombinant protein, residues 1-254, protein details: His, label: 5'-biotin, probe letters rebuilt from the primers and the genome. A general note: Mobility shift assays separate free from complexed probe on a gel.

Take “AGCCAGTGGCGATAAGCGCATGTGAGGTCACGAGCCGATCCTCCGCTACGGTTCCCCCAGTGGTCTACACCAACACGTGTGGTGTTGATTCTGGACGAACTGTCCCCGGCGGGGCGAGCCGGCCGTCGCGCCTCGCGCGGGACCCGCCCGCGGAGTACCCGCTCGGCGCCCTTCATCGCTCAACTCGCGTGGCGGTGCCCGACGGTGGGGCCCAAGCGGCTGCGCCGCTTCGAAGAACGAGAACAGGCACTCAGGTGCGGCGTGAGCCGCAGCGGTGAGGGGCCCGCTCAGTGCGAGCGCATGATCCGTTGCAGGGCCTTATCGCCACTGGCT (double strand) [nagA promoter]”: the dissociation constant Kd in series [1] (100 uM c-di-AMP) stood at 0.44 µM; in series [1] (no c-di-AMP), 19 µM. For the same sequence, the binding result was “binds” in series [2] (100 uM c-di-AMP, stable complex at 2 uM protein) and “binds” in series [2] (no c-di-AMP, clear shift at 20 uM protein).

Consider “AGCCAGTGGCGATAAGGACAGGAAGCTGTTCTTCCGTGGCGGGGGCGGGGCCGGAGTCGTCCGTTCGGGGTGCCTGCGGCGGCCTGTGCGGGTGCGGTGGGGGTGCGCGTAGCGCCGTTTGTCCGGTGGGTGGGTCGGGGGCGCGCCGGGGGGTGTCCGTCCTCGGAACGGCGCGGAATCGGTCACTTGAAAAGGCTCGGGGCGTTGACGCGCCAACCGCTGCGGGCGGACACCCCCCGACACGCCCCCTCCTCGCCGTACGCCGCTCTCCCCGCCCACACTCCGCGTCCCCCGCCCCGCCGTACGCGGCTGACCGTCCAATCCCGCTCAGCTGCGGGCAGCCGCCACGCCGCCCCAGCTGCGGGCAGTCGTGCCGCTGGGGCGGCACGGGTGGGCGCAGCGGCACCCCGCAACGCCGGGCCGCGCTCCTTATCGCCACTGGCT (double strand) [disA promoter (SCO3351)]”, for which the binding result is “binds” in series [3] (30 uM c-di-AMP, binding strongly enhanced); “binds” in series [3] (c-di-GMP, little difference); “binds” in series [3] (cAMP, little difference); “binds” in series [3] (cGMP, little difference); “binds” in series [3] (no c-di-AMP).

A word on the Kd: it is the concentration at which binding is half-saturated.
